Patent publication US6669951B2 (CellGate, Inc., priority 1999, dated 2003)

Assay: general procedure: Fmoc solid-phase peptide synthesis; HATU
Settings: conjugation step

Substance	conjugation yield [%]	conjugation yield (run 1) [%]	conjugation yield (run 2) [%]
Biotin-aminocaproic acid-r5-Cys(acyclovir)-CONH2	36		
PEPTIDE1{[FITC].[Ahx].R.R.R.R.R.R.R.[am]}$$$$V2.0		33	55
{FITC-Ahx}-RRRRR-NH2 (SMILES N=C(N)NCCC[C@H](NC(=O)[C@H](CCCNC(=N)N)NC(=O)[C@H](CCCNC(=N)N)NC(=O)[C@H](CCCNC(=N)N)NC(=O)[C@H](CCCNC(=N)N)NC(=O)CCCCCNC(=S)Nc1ccc2c(c1)C(=O)OC21c2ccc(O)cc2Oc2cc(O)ccc21)C(N)=O)	29		

HELM strings list residues between dots; [ac] is acetyl, [am] amide, other brackets name non-standard units. * marks the point of attachment. FITC = O=C1OC2(c3ccc(O)cc3Oc3cc(O)ccc32)c2ccc(NC(=S)*)cc21; Ahx = NCCCCCC(=O)O
